Results from paper PMC10620119.
No constants are given. Whether binding was seen depends on the method and setting. Binding seen in cells or lysates may run through a third protein. These calls come from enrichment with a bait or labelling near it, and not all partners need be listed. For some of these results: No binding means not detected with the bait.

Protein sequences, listed by entry. Tags and fused reporters are not part of them.
UniProt Q8CBW3: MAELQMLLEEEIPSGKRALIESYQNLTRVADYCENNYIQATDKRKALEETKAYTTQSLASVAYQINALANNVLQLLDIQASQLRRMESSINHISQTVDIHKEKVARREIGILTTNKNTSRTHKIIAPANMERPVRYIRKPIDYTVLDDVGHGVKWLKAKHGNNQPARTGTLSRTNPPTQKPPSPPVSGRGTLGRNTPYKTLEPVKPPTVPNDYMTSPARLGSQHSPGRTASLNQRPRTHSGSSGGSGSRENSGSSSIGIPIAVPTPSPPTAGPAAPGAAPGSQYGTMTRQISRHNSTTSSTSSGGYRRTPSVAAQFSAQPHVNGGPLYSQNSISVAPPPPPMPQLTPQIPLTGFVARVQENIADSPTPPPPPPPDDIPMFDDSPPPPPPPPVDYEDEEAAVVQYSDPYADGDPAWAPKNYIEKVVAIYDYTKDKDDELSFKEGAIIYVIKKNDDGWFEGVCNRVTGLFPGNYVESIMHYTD
UniProt O08863: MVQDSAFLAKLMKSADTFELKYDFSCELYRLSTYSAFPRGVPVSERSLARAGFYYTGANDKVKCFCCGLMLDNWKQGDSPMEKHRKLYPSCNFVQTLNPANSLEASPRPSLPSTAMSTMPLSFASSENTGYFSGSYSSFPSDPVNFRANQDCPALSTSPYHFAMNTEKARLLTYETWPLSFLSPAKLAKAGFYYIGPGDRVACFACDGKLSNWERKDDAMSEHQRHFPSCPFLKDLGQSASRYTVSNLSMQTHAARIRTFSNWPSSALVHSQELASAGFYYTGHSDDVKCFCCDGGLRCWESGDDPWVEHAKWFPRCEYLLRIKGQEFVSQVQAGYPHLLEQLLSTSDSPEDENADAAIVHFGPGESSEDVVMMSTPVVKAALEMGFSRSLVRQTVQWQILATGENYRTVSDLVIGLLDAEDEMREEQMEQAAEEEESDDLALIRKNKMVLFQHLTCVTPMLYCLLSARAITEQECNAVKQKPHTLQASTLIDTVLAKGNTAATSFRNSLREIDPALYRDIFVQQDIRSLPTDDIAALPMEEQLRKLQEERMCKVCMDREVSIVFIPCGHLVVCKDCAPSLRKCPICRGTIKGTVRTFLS
UniProt Q62210: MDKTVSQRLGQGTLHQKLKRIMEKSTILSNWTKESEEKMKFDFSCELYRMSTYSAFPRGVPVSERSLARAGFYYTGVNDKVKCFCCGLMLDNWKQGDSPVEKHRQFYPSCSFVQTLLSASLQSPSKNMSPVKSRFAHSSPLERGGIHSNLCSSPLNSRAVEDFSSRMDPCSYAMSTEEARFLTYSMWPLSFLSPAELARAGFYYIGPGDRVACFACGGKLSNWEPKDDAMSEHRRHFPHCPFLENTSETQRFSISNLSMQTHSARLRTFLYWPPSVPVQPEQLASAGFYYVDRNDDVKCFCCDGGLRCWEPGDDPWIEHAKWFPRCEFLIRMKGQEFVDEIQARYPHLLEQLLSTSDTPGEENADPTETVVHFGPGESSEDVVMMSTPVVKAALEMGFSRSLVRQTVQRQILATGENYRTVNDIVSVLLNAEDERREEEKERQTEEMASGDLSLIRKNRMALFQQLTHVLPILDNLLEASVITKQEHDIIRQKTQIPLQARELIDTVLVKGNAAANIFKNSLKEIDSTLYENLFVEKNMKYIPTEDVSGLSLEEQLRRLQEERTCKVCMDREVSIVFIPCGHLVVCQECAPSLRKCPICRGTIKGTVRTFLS

Legend:
[1] = target: TurboID-13xGGGGS linker-ABI1 (TurboABI1) (mouse) (UniProt Q8CBW3); assay: proximity labelling; TurboID-ABI1 (TurboABI1 #1) stably expressed in NIH/3T3; 50 uM biotin for 3 h at 37 C; RIPA lysis; magnetic streptavidin beads overnight at 4 C; on-bead tryptic digestion, label-free LC-MS/MS; compared with TurboControl #1 and WT; hits: PA ratio >= 1.5 and PSM ratio >= 1.5 (FDR <= 0.05), minimum average 1 PSM per injection
[2] = target: TurboID-13xGGGGS linker-ABI1 (TurboABI1) (mouse) (UniProt Q8CBW3); assay: as above; remark: listed apart in the source
[3] = target: TurboID-13xGGGGS linker-ABI1 (TurboABI1) (mouse) (UniProt Q8CBW3); assay: proximity labelling; small-scale biotinylation: 1e6 cells per 10-cm dish, 500 uM biotin for 10 min; western blot of whole cell and streptavidin-enriched lysates of TurboControl and TurboABI1 cell lines

## cellular inhibitor of apoptosis protein 2 (cIAP2) (from UniProt O08863 1-600)
[1]
  binding: no binding

## cellular inhibitor of apoptosis protein 1 (cIAP1) (from UniProt Q62210 1-612)
[1]
  binding: no binding

B1: TRAF3 interacting protein 2 (TRAF3IP2) (protein, UniProt Q8N7N6 1-555)
chain: MNRSIPVEVDESEPFPSQLLKPIPEYSPEEELEPPAPNTRNMAPSSLSVLQCPPLKLANHQPVSQQVTCLRAKVLEEGEASFFRRHPELGKDISSCSSGASEPESELGALPPEHRFTLTEKRNRWLGSQLSAASPDTGHESDKSDPSLPNALADSFSGGQEMMPRPRPRPGPHRHRAAPDVPTIDTGYDSQPQDVLGIRQLERPLPLTSSCYLQDLPGPLRSRELPPQFELERYPMNAQLLPPHPSPQAPWNCQYYCPGGPYHHQVPHGHGYPPAAAYQQVLQPALPGQVLPGARARGPRPVQKVILNDSSPQDQEERPAQRDFSFPRLPRDQLYRPPSNGVEAPEESLDLPAELRPHGPQAPSLAAVPRPPSNPLARGTLRTSNLPEELRKVFITYSMDTAMEVVKFVNFLLVNGFQTAIDIFEDRIRGIDIIKWMERYLRDKTVMIIVAISPKYKQDVEGAESQLDEDEHGLHTKYIHRMMQIEFISQGSMNFRFIPVLFPNAKKEHVPTWLQNTHVYSWPKNKKNILLRLLREEEYVAPPRGPLPTLQVVPL
[2]
  binding: binds

B2: ELKS/RAB6-interacting/CAST family member 1 (ERC1) (protein, UniProt Q99MI1 1-1120)
chain: MYGSARSVGKVEPSSQSPGRSPRLPRSPRLGHRRTNSTGGSSGNSVGGGSGKTLSMENIQSLNAAYATSGPMYLSDHENVGAETPKSTMTLGRSGGRLPYGVRMTAMGSSPNIASSGVASDTIAFGEHHLPPVSMASTVPHSLRQARDNTIMDLQTQLKEVLRENDLLRKDVEVKESKLSSSMNSIKTFWSPELKKERALRKDEASKITIWKEQYRVVQEENQHMQMTIQALQDELRIQRDLNQLFQQDSSSRTGEPCVAELTEENFQRLHAEHERQAKELFLLRKTLEEMELRIETQKQTLNARDESIKKLLEMLQSKGLSAKATEEDHERTRRLAEAEMHVHHLESLLEQKEKENNMLREEMHRRFENAPDSAKTKALQTVIEMKDSKISSMERGLRDLEEEIQMLKSNGALSSEEREEEMKQMEVYRSHSKFMKNKVEQLKEELSSKDAQGEELKKRAAGLQSEIGQVKQELSRKDTELLALQTKLETLTNQFSDSKQHIEVLKESLTAKEQRAAILQTEVDALRLRLEEKETMLNKKTKQIQDMAEEKGTQAGEIHDLKDMLDVKERKVNVLQKKIENLQEQLRDKEKQMSSLKERVKSLQADTTNTDTALTTLEEALADKERTIERLKEQRDRDEREKQEEIDTYKKDLKDLREKVSLLQGDLSEKEASLLDIKEHASSLASSGLKKDSRLKTLEIALEQKKEECLKMESQLKKAHEATLEARASPEMSDRIQQLEREISRYKDESSKAQTEVDRLLEILKEVENEKNDKDKKIAELESLTSRQVKDQNKKVANLKHKEQVEKKKSAQMLEEARRREDSLSDSSQQLQDSLRKKDDRIEELEEALRESVQITAEREMVLAQEESARTNAEKQVEELLMAMEKVKQELESMKAKLSSTQQSLAEKETHLTNLRAERRKHLEEVLEMKQEALLAAISEKDANIALLELSSSKKKTQEEVAALKREKDRLVQQLKQQTQNRMKLMADNYEDDHFRSSRSNQTNHKPSPDQIIQPLLELDQNRSKLKLYIGHLTALCHDRDPLILRGLTPPASYNADGEQAAWENELQQMTQEQLQNELEKVEGDNAELQEFANTILQQIADHCPDILEQVVNALEESS
[3]
  binding: binds
[2]
  binding: binds

B3: tumor necrosis factor receptor type 1-associated DEATH domain protein (TRADD) (protein, UniProt Q3U0V2 1-310)
chain: MAAGQNGHEEWVGSAYLFLESAVDKVILSEAYTDPKKKVAIYKALQTALSESGDSSDVLQILKIHCSDPQLIVQLRFCGRVLCGRFLQAYREGALRTALQRCMAPALAQEALRLQLELRAGAEQLDSWLTDEERCLNYILAQKPDRLRDEELAELEDELCKLTCDCTGQGGAIQVASAGSKFPVSSPTEEKPLPAACQTFLFHGQLVVNRPLTLQDQQTFARSVGLKWRRVGRSLQRNCRALRDPALDSLAYEYERDGLYEQAFQLLRRFMQAEGRRATLQRLVEALEENELTSLAEDLLGQAEPDGGLA
[2]
  binding: no binding

B4: serine/threonine-protein phosphatase 6 catalytic subunit (PPP6C) (protein, UniProt Q9CQR6 1-305)
chain: MAPLDLDKYVEIARQCKYLPENDLKRLCDYVCDLLLEESNVQPVSTPVTVCGDIHGQFYDLCELFRTGGQVPDTNYIFMGDFVDRGYYSLETFTYLLALKAKWPDRITLLRGNHESRQITQVYGFYDECQTKYGNANAWRYCTKVFDMLTVAALIDEQILCVHGGLSPDIKTLDQIRTIERNQEIPHKGAFCDLVWSDPEDVDTWAISPRGAGWLFGAKVTNEFVHINNLKLICRAHQLVHEGYKFMFDEKLVTVWSAPNYCYRCGNIASIMVFKDVNTREPKLFRAVPDSERVIPPRTTTPYFL
[2]
  binding: binds
